Results published in PMC7347597, “INTS10–INTS13–INTS14 form a functional module of Integrator that binds nucleic acids and the cleavage module” (Nature Communications, 2020).
For some assays here: A weaker result is weaker than the reference pair of the same experiment. For at least one entry, the source does not settle the construct or the ends of the probe. For some assays here: The direction of at least one scale is not stated here.

Chains of the proteins cited; added tags and fusions are not shown. Chains listed by the source or under a name are the forms on record and can include a tag or linker.
INTS10-INTS13-INTS14 heterotrimer (Homo sapiens), one chain, as listed by the source, chain 2 of 3: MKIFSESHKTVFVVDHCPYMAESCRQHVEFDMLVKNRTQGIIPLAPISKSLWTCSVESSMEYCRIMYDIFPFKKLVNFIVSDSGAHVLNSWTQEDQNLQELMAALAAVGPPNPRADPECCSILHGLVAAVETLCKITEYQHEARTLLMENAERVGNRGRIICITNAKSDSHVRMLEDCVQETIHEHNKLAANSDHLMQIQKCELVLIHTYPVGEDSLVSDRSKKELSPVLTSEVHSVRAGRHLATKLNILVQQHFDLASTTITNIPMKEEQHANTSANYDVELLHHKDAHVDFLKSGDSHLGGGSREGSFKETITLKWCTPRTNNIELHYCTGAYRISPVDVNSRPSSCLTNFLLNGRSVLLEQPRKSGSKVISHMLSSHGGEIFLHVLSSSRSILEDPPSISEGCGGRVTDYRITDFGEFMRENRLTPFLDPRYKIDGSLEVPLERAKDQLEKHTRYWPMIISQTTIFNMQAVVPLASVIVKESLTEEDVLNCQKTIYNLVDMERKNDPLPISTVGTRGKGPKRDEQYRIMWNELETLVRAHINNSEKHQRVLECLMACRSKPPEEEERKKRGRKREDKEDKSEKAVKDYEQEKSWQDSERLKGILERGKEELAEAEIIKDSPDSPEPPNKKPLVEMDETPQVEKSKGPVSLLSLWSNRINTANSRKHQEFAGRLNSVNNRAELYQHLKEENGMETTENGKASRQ
INTS10-INTS13-INTS14 heterotrimer (Homo sapiens), one chain, as listed by the source, chain 3 of 3: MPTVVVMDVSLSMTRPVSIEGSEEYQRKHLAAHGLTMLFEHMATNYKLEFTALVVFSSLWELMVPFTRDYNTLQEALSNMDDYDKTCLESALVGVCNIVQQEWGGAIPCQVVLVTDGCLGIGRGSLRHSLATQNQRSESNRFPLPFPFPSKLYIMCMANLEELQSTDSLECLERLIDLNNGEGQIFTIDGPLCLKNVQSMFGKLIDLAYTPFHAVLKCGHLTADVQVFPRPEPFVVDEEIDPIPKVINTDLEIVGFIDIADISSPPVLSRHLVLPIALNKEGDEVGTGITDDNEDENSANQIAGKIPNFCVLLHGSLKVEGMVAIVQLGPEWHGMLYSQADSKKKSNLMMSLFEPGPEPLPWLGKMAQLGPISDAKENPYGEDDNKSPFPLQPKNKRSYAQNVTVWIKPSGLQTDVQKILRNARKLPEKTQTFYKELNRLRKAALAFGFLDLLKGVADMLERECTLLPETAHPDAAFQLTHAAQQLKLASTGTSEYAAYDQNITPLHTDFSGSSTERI
INTS10-INTS13-INTS14 heterotrimer (Homo sapiens), one chain, as listed by the source, chain 1 of 3: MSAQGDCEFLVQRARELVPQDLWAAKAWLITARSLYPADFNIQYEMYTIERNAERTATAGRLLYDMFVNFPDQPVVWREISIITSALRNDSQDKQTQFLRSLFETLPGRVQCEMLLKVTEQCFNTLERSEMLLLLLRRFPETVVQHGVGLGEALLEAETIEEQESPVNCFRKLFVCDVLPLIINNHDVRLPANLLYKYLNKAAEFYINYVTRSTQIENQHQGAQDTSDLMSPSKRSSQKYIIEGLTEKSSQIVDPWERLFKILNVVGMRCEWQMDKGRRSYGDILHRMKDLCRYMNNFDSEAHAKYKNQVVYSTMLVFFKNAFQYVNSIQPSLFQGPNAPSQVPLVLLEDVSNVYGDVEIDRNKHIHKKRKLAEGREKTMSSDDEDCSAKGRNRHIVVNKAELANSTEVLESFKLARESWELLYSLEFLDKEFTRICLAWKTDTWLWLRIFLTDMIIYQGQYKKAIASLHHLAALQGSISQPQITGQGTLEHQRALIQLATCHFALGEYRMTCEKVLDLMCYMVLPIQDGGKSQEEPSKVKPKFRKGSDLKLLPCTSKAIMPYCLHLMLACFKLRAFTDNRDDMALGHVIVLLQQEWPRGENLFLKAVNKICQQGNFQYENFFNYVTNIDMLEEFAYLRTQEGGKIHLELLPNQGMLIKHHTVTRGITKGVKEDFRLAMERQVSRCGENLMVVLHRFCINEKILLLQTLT

Assays:
[1] = tested on: INTS10-INTS13-INTS14 heterotrimer (Homo sapiens); test: EMSA; settings: EMSA: 50 mM HEPES pH 7.5, 200 mM NaCl, 2 mM MgCl2, on ice, 2 uM RNA or 1 uM DNA, recombinant protein
[2] = tested on: INTS13-INTS14 heterodimer (Homo sapiens); test: EMSA; settings: EMSA: 50 mM HEPES pH 7.5, 200 mM NaCl, 2 mM MgCl2, on ice, 2 uM RNA or 1 uM DNA, recombinant protein
[3] = tested on: INTS10-INTS13-INTS14 heterotrimer (Homo sapiens); test: fluorescence polarization; settings: low salt (no additional NaCl); FP: 10 nM RNA, 10 mM HEPES pH 7.5, 5% glycerol, 2 mM MgCl2, 50 mM NaCl or none added, temperature not stated; recombinant …; label: 5'-6-FAM
[4] = tested on: INTS13-INTS14 heterodimer (Homo sapiens); test: fluorescence polarization; settings: low salt (no additional NaCl); FP: 10 nM RNA, 10 mM HEPES pH 7.5, 5% glycerol, 2 mM MgCl2, 50 mM NaCl or none added, temperature not stated; recombinant …; label: 5'-6-FAM
[5] = letters put together from the description

Question: Does “ACTTTCTGGAGTTTCAAAAACAGACTGTACGCCA [U1 3'-box ssDNA]” bind ([1]; single-stranded DNA)?
Answer: Result: binds more weakly

Question: Does “ACTTTCTGGAGTTTCAAAAACAGACTGTACGCCA [U1 3'-box ssDNA]” bind ([2]; single-stranded DNA)?
Answer: Result: binds more weakly

Question: Which results are given for “GGACUUUCUGGAGUUUCAAAAACAGACUGUACGCCAGCCGG [U1 3'-box ssRNA (EMSA)]”?
Answer: binding result [1, 5]: binds; binding result [2, 5]: binds

Question: Does “ACTTTCTGGAGTTTCAAAAACAGACTGTACGCCA (double strand) [U1 3'-box dsDNA]” bind [1]?
Answer: Result: binds more weakly

Question: Does “ACTTTCTGGAGTTTCAAAAACAGACTGTACGCCA (double strand) [U1 3'-box dsDNA]” bind [2]?
Answer: Result: binds more weakly

Question: Which binding signal (fold higher affinity than standard salt) [3] does the source give for “CUGGAGUUUCAAAAACAGACUG [U1 3'-box ssRNA (FP)]” here?
Answer: The binding signal (fold higher affinity than standard salt) was 18.

Question: What about the binding signal (fold higher affinity than standard salt) [4] of the same sequence?
Answer: Its binding signal (fold higher affinity than standard salt) is 7.
